Test results: publication PMC12758526

Molecular target: T1, SerRS^T-mCherry (seryl-tRNA synthetase variant, mCherry tag inserted at the endogenous serS^T locus) (E. coli (endogenous in KLY SerS^T)) (UniProt P0A8L1)
T1 sequence: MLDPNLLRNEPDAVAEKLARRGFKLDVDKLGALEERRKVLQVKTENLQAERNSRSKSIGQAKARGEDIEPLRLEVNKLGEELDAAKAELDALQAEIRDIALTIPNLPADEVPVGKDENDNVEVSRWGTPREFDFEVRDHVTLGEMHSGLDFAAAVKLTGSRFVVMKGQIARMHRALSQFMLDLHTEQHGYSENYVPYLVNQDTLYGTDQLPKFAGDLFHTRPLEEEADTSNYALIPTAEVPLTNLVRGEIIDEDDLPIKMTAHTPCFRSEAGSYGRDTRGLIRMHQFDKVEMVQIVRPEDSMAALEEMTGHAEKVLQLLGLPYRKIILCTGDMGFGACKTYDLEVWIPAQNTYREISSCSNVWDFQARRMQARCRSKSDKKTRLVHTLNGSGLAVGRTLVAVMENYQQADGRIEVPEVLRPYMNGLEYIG
Experiment: affinity purification with mass spectrometry; Anti-mCherry nanobody immunomagnetic beads on lysates of strains with SerRS-mCherry at the endogenous locus; cultures at OD600 ~0.2 (upon serine depletion); lysis buffer 50 mM NaCl, 20 mM tris-HCl pH 7.4, with RNase inhibitor and DNase I; quantitative mass spectrometry of the precipitates

binding: binds
B1: HrpA, ATP-dependent RNA helicase of the DEAH/RHA family (wild-type allele) (enzyme, UniProt P43329 1-1300)
chain: MTEQQKLTFTALQQRLDSLMLRDRLRFSRRLHGVKKVKNPDAQQAIFQEMAKEIDQAAGKVLLREAARPEITYPDNLPVSQKKQDILEAIRDHQVVIVAGETGSGKTTQLPKICMELGRGIKGLIGHTQPRRLAARTVANRIAEELKTEPGGCIGYKVRFSDHVSDNTMVKLMTDGILLAEIQQDRLLMQYDTIIIDEAHERSLNIDFLLGYLKELLPRRPDLKIIITSATIDPERFSRHFNNAPIIEVSGRTYPVEVRYRPIVEEADDTERDQLQAIFDAVDELSQESHGDILIFMSGEREIRDTADALNKLNLRHTEILPLYARLSNSEQNRVFQSHSGRRIVLATNVAETSLTVPGIKYVIDPGTARISRYSYRTKVQRLPIEPISQASANQRKGRCGRVSEGICIRLYSEDDFLSRPEFTDPEILRTNLASVILQMTALGLGDIAAFPFVEAPDKRNIQDGVRLLEELGAITTDEQASAYKLTPLGRQLSQLPVDPRLARMVLEAQKHGCVREAMIITSALSIQDPRERPMDKQQASDEKHRRFHDKESDFLAFVNLWNYLGEQQKALSSNAFRRLCRTDYLNYLRVREWQDIYTQLRQVVKELGIPVNSEPAEYREIHIALLTGLLSHIGMKDADKQEYTGARNARFSIFPGSGLFKKPPKWVMVAELVETSRLWGRIAARIDPEWVEPVAQHLIKRTYSEPHWERAQGAVMATEKVTVYGLPIVAARKVNYSQIDPALCRELFIRHALVEGDWQTRHAFFRENLKLRAEVEELEHKSRRRDILVDDETLFEFYDQRISHDVISARHFDSWWKKVSRETPDLLNFEKSMLIKEGAEKISKLDYPNFWHQGNLKLRLSYQFEPGADADGVTVHIPLPLLNQVEESGFEWQIPGLRRELVIALIKSLPKPVRRNFVPAPNYAEAFLGRVKPLELPLLDSLERELRRMTGVTVDREDWHWDQVPDHLKITFRVVDDKNKKLKEGRSLQDLKDALKGKVQETLSAVADDGIEQSGLHIWSFGQLPESYEQKRGNYKVKAWPALVDERDSVAIKLFDNPLEQKQAMWNGLRRLLLLNIPSPIKYLHEKLPNKAKLGLYFNPYGKVLELIDDCISCGVDKLIDANGGPVWTEEGFAALHEKVRAELNDTVVDIAKQVEQILTAVFNINKRLKGRVDMTMALGLSDIKAQMGGLVYRGFVTGNGFKRLGDTLRYLQAIEKRLEKLAVDPHRDRAQMLKVENVQQAWQQWINKLPPARREDEDVKEIRWMIEELRVSYFAQQLGTPYPISDKRILQAMEQISG

Results are given in words; binding and its absence hold for the method and conditions named. Binding seen in cells or lysates may run through a third protein. Here binding means that the protein was enriched with, or labelled near, the bait; the list need not be complete. Where a sequence is shown, tags or fusion partners need not be part of it.
